Measured values published in PMC4249797.

Target: T1, dAtrxL (long isoform of Drosophila dAtrx/Xnp) (Drosophila melanogaster (endogenous in embryos and S2R+ cells)) (UniProt Q9GQN5)
T1 sequence: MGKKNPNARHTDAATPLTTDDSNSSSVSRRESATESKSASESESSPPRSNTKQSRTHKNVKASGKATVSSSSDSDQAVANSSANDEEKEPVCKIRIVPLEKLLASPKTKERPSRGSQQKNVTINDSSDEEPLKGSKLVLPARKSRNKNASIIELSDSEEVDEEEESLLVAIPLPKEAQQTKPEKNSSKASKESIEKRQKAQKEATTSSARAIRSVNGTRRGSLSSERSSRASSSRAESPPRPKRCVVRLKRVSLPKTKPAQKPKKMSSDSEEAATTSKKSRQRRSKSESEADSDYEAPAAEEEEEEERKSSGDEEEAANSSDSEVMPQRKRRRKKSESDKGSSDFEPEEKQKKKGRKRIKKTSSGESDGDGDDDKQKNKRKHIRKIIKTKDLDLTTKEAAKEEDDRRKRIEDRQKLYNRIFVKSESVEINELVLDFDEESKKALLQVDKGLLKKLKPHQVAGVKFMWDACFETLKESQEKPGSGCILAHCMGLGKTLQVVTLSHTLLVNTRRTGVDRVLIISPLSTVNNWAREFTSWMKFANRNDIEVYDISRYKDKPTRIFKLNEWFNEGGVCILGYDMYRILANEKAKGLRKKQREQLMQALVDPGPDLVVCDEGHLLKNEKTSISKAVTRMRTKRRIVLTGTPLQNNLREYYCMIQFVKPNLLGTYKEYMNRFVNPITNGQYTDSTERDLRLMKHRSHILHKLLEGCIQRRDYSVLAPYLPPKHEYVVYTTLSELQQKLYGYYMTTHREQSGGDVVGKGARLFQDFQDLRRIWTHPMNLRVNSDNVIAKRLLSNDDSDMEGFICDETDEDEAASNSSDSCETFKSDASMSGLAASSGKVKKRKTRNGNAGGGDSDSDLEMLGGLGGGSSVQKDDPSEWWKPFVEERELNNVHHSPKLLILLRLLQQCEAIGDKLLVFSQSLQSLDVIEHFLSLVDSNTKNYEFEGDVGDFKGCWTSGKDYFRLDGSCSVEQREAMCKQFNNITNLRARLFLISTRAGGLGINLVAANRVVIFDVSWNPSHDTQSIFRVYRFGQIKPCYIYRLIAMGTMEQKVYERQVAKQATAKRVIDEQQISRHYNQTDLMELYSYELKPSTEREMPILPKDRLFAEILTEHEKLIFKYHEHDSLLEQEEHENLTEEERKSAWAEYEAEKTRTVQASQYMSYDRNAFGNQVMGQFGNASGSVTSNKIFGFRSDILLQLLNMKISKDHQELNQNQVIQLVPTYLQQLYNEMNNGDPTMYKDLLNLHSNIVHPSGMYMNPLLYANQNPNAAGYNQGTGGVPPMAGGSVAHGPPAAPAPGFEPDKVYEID
Experiment: co-IP; endogenous proteins; embryo nuclear extract or S2R+ cells total extract; IP with pan-dAdd1 or anti-dAtrxL antibody, Western blot with pan-dAdd1, anti-dAtrxL, anti-dAdd1-a or anti-dAdd1-b; mock IP with an unrelated antibody

| binding | Substance |
| --- | --- |
| binds | dAdd1-a |
| binds | dAdd1-b |

These are yes or no findings as the source states them, for the method shown. Binding seen in cells or lysates may run through a third protein. Binding calls can cover weak binding; strength is not graded here.
